# This is one part of the list.
# Legend:
# Assay in all cases: glycan array binding signal (z-score within array); higher = stronger binding
# Conditions in all cases: glycan notation: IUPAC condensed, linker removed
# [1] = biological target: Gal(b1-3)GlcNAc(b1-6)[Gal(b1-3)]GalNAc
# Summary of the method: (§1)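 Glycan array binding is given as a within-array Z-score, which can be read as non-binding when negative. The arrays, 3228 of them, came from the Consortium for Functional Glycomics database and were retained only where the protein sequence was available. Z-scores were averaged across arrays of the same protein sequence at different concentrations or buffers and across linkers.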
# Gal(b1-3)GlcNAc6S = biological target: Gal(b1-3)GlcNAc6S
# Summary of the method: as §1
# [2] = biological target: Gal(b1-3)[Fuc(a1-4)]GlcNAc
# Summary of the method: as §1
# [3] = biological target: Gal(b1-3)[Fuc(a1-4)]GlcNAc(b1-2)Man
# Summary of the method: as §1
# [4] = biological target: Gal(b1-3)[Fuc(a1-4)]GlcNAc(b1-2)Man(a1-3)[Gal(b1-3)[Fuc(a1-4)]GlcNAc(b1-2)Man(a1-6)]Man(b1-4)GlcNAc(b1-4)[Fuc(a1-6)]GlcNAc
# Summary of the method: as §1
# [5] = biological target: Gal(b1-3)[Fuc(a1-4)]GlcNAc(b1-3)Gal(b1-3)[Fuc(a1-4)]GlcNAc
# Summary of the method: as §1
# [6] = biological target: Gal(b1-3)[Fuc(a1-4)]GlcNAc(b1-3)Gal(b1-4)[Fuc(a1-3)]GlcNAc
# Summary of the method: as §1
# [7] = biological target: Gal(b1-3)[Fuc(a1-4)]GlcNAc(b1-6)GalNAc
# Summary of the method: as §1
# [8] = biological target: Gal(b1-3)[GlcNAc(b1-6)]GalNAc
# Summary of the method: as §1
# [9] = biological target: Gal(b1-3)[Neu5Ac(a2-6)]GalNAc
# Summary of the method: as §1
# [10] = biological target: Gal(b1-3)[Neu5Ac(a2-6)]GlcNAc(b1-4)Gal(b1-4)Glc
# Summary of the method: as §1
# [11] = biological target: Gal(b1-3)[Neu5Ac(b2-6)]GalNAc
# Summary of the method: as §1
# Gal(b1-4)Gal = biological target: Gal(b1-4)Gal
# Summary of the method: as §1
# [12] = biological target: Gal(b1-4)GalNAc(a1-3)[Fuc(a1-2)]Gal(b1-4)GlcNAc
# Summary of the method: as §1
# [13] = biological target: Gal(b1-4)GalNAc(b1-3)[Fuc(a1-2)]Gal(b1-4)GlcNAc
# Summary of the method: as §1
# Gal(b1-4)Glc = biological target: Gal(b1-4)Glc
# Summary of the method: as §1
# Gal(b1-4)Glc6S = biological target: Gal(b1-4)Glc6S
# Summary of the method: as §1
# Gal(b1-4)GlcNAc = biological target: Gal(b1-4)GlcNAc
# Summary of the method: as §1
# [14] = biological target: Gal(b1-4)GlcNAc(a1-6)Gal(b1-4)GlcNAc
# Summary of the method: as §1
# Gal(b1-4)GlcNAc(b1-2)Man = biological target: Gal(b1-4)GlcNAc(b1-2)Man
# Summary of the method: as §1
# [15] = biological target: Gal(b1-4)GlcNAc(b1-2)Man(a1-3)Man(b1-4)GlcNAc(b1-4)GlcNAc
# Summary of the method: as §1
# [16] = biological target: Gal(b1-4)GlcNAc(b1-2)Man(a1-3)[Gal(b1-4)GlcNAc(b1-2)Man(a1-6)]Man(b1-4)GlcNAc(b1-4)GlcNAc
# Summary of the method: as §1
# [17] = biological target: Gal(b1-4)GlcNAc(b1-2)Man(a1-3)[Gal(b1-4)GlcNAc(b1-2)Man(a1-6)]Man(b1-4)GlcNAc(b1-4)[Fuc(a1-6)]GlcNAc
# Summary of the method: as §1
# [18] = biological target: Gal(b1-4)GlcNAc(b1-2)Man(a1-3)[Gal(b1-4)GlcNAc(b1-2)Man(a1-6)][Gal(b1-4)GlcNAc(b1-4)]Man(b1-4)GlcNAc(b1-4)[Fuc(a1-6)]GlcNAc
# Summary of the method: as §1
# [19] = biological target: Gal(b1-4)GlcNAc(b1-2)Man(a1-3)[Gal(b1-4)GlcNAc(b1-2)Man(a1-6)][GlcNAc(b1-4)]Man(b1-4)GlcNAc(b1-4)[Fuc(a1-6)]GlcNAc
# Summary of the method: as §1
# [20] = biological target: Gal(b1-4)GlcNAc(b1-2)Man(a1-3)[GlcNAc(b1-2)Man(a1-6)]Man(b1-4)GlcNAc(b1-4)GlcNAc
# Summary of the method: as §1
# [21] = biological target: Gal(b1-4)GlcNAc(b1-2)Man(a1-3)[GlcNAc(b1-4)][Gal(b1-4)GlcNAc(b1-2)Man(a1-6)]Man(b1-4)GlcNAc(b1-4)GlcNAc
# Summary of the method: as §1
# [22] = biological target: Gal(b1-4)GlcNAc(b1-2)Man(a1-3)[Man(a1-6)]Man(b1-4)GlcNAc(b1-4)GlcNAc
# Summary of the method: as §1
# [23] = biological target: Gal(b1-4)GlcNAc(b1-2)Man(a1-6)Man(b1-4)GlcNAc(b1-4)GlcNAc
# Summary of the method: as §1
# [24] = biological target: Gal(b1-4)GlcNAc(b1-2)Man(a1-6)[GlcNAc(b1-2)Man(a1-3)]Man(b1-4)GlcNAc(b1-4)GlcNAc
# Summary of the method: as §1
# [25] = biological target: Gal(b1-4)GlcNAc(b1-2)Man(a1-6)[Man(a1-3)]Man(b1-4)GlcNAc(b1-4)GlcNAc
# Summary of the method: as §1
# [26] = biological target: Gal(b1-4)GlcNAc(b1-2)[Gal(b1-4)GlcNAc(b1-4)]Man(a1-3)[Gal(b1-4)GlcNAc(b1-2)Man(a1-6)]Man(b1-4)GlcNAc(b1-4)GlcNAc
# Summary of the method: as §1
# [27] = biological target: Gal(b1-4)GlcNAc(b1-2)[Gal(b1-4)GlcNAc(b1-4)]Man(a1-3)[Gal(b1-4)GlcNAc(b1-2)[Gal(b1-4)GlcNAc(b1-6)]Man(a1-6)]Man(b1-4)GlcNAc(b1-4)GlcNAc
# Summary of the method: as §1
# [28] = biological target: Gal(b1-4)GlcNAc(b1-2)[Gal(b1-4)GlcNAc(b1-4)]Man(a1-3)[GlcNAc(b1-4)][Gal(b1-4)GlcNAc(b1-2)Man(a1-6)]Man(b1-4)GlcNAc(b1-4)GlcNAc
# Summary of the method: as §1
# [29] = biological target: Gal(b1-4)GlcNAc(b1-2)[Gal(b1-4)GlcNAc(b1-4)]Man(a1-3)[GlcNAc(b1-4)][Gal(b1-4)GlcNAc(b1-2)[Gal(b1-4)GlcNAc(b1-6)]Man(a1-6)]Man(b1-4)GlcNAc(b1-4)GlcNAc
# Summary of the method: as §1
# [30] = biological target: Gal(b1-4)GlcNAc(b1-2)[Gal(b1-4)GlcNAc(b1-6)]Man(a1-6)[Gal(b1-4)GlcNAc(b1-2)Man(a1-3)]Man(b1-4)GlcNAc(b1-4)GlcNAc
# Summary of the method: as §1
# [31] = biological target: Gal(b1-4)GlcNAc(b1-2)[Gal(b1-4)GlcNAc(b1-6)]Man(a1-6)[Gal(b1-4)GlcNAc(b1-2)Man(a1-3)]Man(b1-4)GlcNAc(b1-4)[Fuc(a1-6)]GlcNAc
# Summary of the method: as §1
binder,measurement,setting,value
"SAOUHSC 02783 (Staphylococcus aureus), Q5HD69 (protein) MIHSKKLTLGICLVLLIILIVGYVIMTKTNGRNAQIKDTFNQTLKLYPTKNLDDFYDKEGFRDQEFKKGDKGTWIVNSEMVIEPKGKDMETRGMVLYINRNTRTTKGYYFISEMTDDSNGRPKDDEKRYPVKMEHNKIIPTKPLPNDKLKKEIENFKFFVQYGNFKDINDYKDGDISYNPNVPSYSAKYQLNNDDYNVQQLRKRYDIPTKQAPKLLLKGDGDLKGSSVGSRSLEFTFVENKEENIYFTDSVQYTPSEDTRYESN",glycan array binding signal (z-score),[1],-0.318
same,glycan array binding signal (z-score),Gal(b1-3)GlcNAc6S,0.915
same,glycan array binding signal (z-score),[2],0.169
same,glycan array binding signal (z-score),[3],2.5
same,glycan array binding signal (z-score),[4],1.82
same,glycan array binding signal (z-score),[5],-0.547
same,glycan array binding signal (z-score),[6],0.001
same,glycan array binding signal (z-score),[7],0.425
same,glycan array binding signal (z-score),[8],-0.308
same,glycan array binding signal (z-score),[9],0
same,glycan array binding signal (z-score),[10],-1.05
same,glycan array binding signal (z-score),[11],-0.3
same,glycan array binding signal (z-score),Gal(b1-4)Gal,0.435
same,glycan array binding signal (z-score),[12],-0.306
same,glycan array binding signal (z-score),[13],-1.95
same,glycan array binding signal (z-score),Gal(b1-4)Glc,0.097
same,glycan array binding signal (z-score),Gal(b1-4)Glc6S,0.097
same,glycan array binding signal (z-score),Gal(b1-4)GlcNAc,0.088
same,glycan array binding signal (z-score),[14],-0.738
same,glycan array binding signal (z-score),Gal(b1-4)GlcNAc(b1-2)Man,1.27
same,glycan array binding signal (z-score),[15],0.093
same,glycan array binding signal (z-score),[16],-1.22
same,glycan array binding signal (z-score),[17],-0.82
same,glycan array binding signal (z-score),[18],0.178
same,glycan array binding signal (z-score),[19],-0.077
same,glycan array binding signal (z-score),[20],0.018
same,glycan array binding signal (z-score),[21],0.438
same,glycan array binding signal (z-score),[22],5.18
same,glycan array binding signal (z-score),[23],0.151
same,glycan array binding signal (z-score),[24],0.066
same,glycan array binding signal (z-score),[25],-0.93
same,glycan array binding signal (z-score),[26],0.614
same,glycan array binding signal (z-score),[27],-1.06
same,glycan array binding signal (z-score),[28],-0.099
same,glycan array binding signal (z-score),[29],-0.31
same,glycan array binding signal (z-score),[30],-0.847
same,glycan array binding signal (z-score),[31],0.542

# Rewritten with bars between the fields: entries from further up
binder | measurement | setting | value
SAOUHSC 02783 (Staphylococcus aureus), Q5HD69 (protein) MIHSKKLTLGICLVLLIILIVGYVIMTKTNGRNAQIKDTFNQTLKLYPTKNLDDFYDKEGFRDQEFKKGDKGTWIVNSEMVIEPKGKDMETRGMVLYINRNTRTTKGYYFISEMTDDSNGRPKDDEKRYPVKMEHNKIIPTKPLPNDKLKKEIENFKFFVQYGNFKDINDYKDGDISYNPNVPSYSAKYQLNNDDYNVQQLRKRYDIPTKQAPKLLLKGDGDLKGSSVGSRSLEFTFVENKEENIYFTDSVQYTPSEDTRYESN | glycan array binding signal (z-score) | [21] | 0.438
same | glycan array binding signal (z-score) | [22] | 5.18

# Source: the supplement of paper PMC8728848
